We go through one molecule from US20170168078A1.

Sequences of proteins named here, by UniProt entry; tags and fusion partners are left off. Residues count along the entry.
UniProt P14207, residues 17-230: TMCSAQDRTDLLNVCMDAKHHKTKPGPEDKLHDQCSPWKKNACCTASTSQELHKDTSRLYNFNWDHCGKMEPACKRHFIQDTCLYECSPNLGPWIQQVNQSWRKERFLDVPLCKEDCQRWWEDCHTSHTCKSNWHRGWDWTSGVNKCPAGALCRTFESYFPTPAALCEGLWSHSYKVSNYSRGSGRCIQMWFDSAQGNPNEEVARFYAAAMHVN

This assay addresses human folate receptor beta (FRβ) expressed on CHO cells (human) (UniProt P14207). In words: western blot of nonreduced whole cell lysates of CHO cells, SDS-PAGE.

Results are given in words; binding and its absence hold for the method and conditions named.

B1: Monoclonal antibody 19D4.B7 (antibody, mouse IgG2a, V domains shown)
VH: GAELVKPGASVKLSCTASGFNIKHPYMHWVKQRPDQGLEWIGRIDPANGNTKYDPKFQGKATITADTSSNTAYLQLSSLTSEDTAVYYCGREEVADYTMDYWGQGTSVTVSS
VL: PASLAVSLGQRATISCRASESVDTYGNNFIHWYQQKPGQPPKLLIYLASNLESGVPARFSGSGSRTDFTLTIDPVEADDAATYYCQQNNGDPWTFGGGTKLEIKR
Regarding B1, the binding entry is recorded as “no binding (tested: 1 µg/mL)”.
